Source: patent US20150133369A1, “PHARMACOKINETIC MODULATION WITH ALISPORIVIR” (priority 2012, published 2015)

Details: alisporivir 600 mg BID for 10 days; single 40 mg oral dose of atorvastatin

SMILES: CC(C)c1c(C(=O)Nc2ccccc2)c(-c2ccccc2)c(-c2ccc(F)cc2)n1CC[C@@H](O)C[C@@H](O)CC(=O)O [atorvastatin, reference compound]
- T1/2 alone versus with alisporivir: similar
